Data source: PubChem BioAssay AID652259 (Drosophila RNAi Screening Center, 2013)
In all, the deposit lists about 22,000 reagents; shown is a random part of those with a known target gene and a result. Of all reagents, 233 (1.1%) got an active call. 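Light values are raw, unnormalised plate reads; the ratio scores behind the reporter calls were not deposited.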 Entries without a mark were called inactive. Reagents against one gene are numbered here. Names joined by + are all predicted targets of the reagent. The record does not give: the amount of reagent, the time to read-out, the dose of the treatment.

Purpose: 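Knock-downs that push a Wingless-driven reporter up or down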 (primary screen)
Cells: Drosophila clone 8 imaginal disc epithelial cells
Knock-down reagent: long dsRNA against Drosophila genes
Treatment: pathway stimulated by co-transfected Wingless expression plasmid
Measurement: 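Dual luciferase reads per well after Wingless plasmid stimulation: reporter firefly light and Renilla control light; activity is firefly divided by Renilla, a ratio not deposited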
Reading the numbers: firefly reporter light: higher = more Wg reporter light, before normalisation; Renilla control light: higher = more transfected or surviving cells
Call rule: 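a knock-down is a candidate when at least two out of four statistical tests show it departing from its plate mean; one test alone signals a weak candidate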
Calls: active = candidate regulator (raises or lowers reporter); inactive = not a candidate

no.	gene knocked down	reagent	reporter change call, replicate 1	firefly reporter light, replicate 1	firefly reporter light, replicate 2	Renilla control light, replicate 1	Renilla control light, replicate 2
1	CG33124	1		1992	4070	874	1869
2	Rep	1		7517		3040	
3	CG14297	1		9955		1404	
4	CG32582 (retired record)	1		4588		816	
5	CG7115	1		2505	6442	1009	3394
6	CG13924	1		6091		2251	
7	kipf	1		23552		5304	
8	kipf	2		6.15e5	6.51e5	1.70e5	2.19e5
9	ninaB	1		18569		3593	
10	Gmppa	1		6970		2292	
11	pippin	1		17675		5222	
12	CG33095	1		14688		11809	
13	CG5397	1		7459		4215	
14	Sema2a	1		14087		4648	
15	CG8654	1		6049		2345	
16	escl	1		14060		5226	
17	dx	1		15074		6512	
18	vls	1		7936		2992	
19	CG18128	1		2464	6630	770	2129
20	CG33775	1		17441		12762	
21	CG5776	1		8871		3536	
22	CG31189	1		14448		3288	
23	CG32762	1		28438		11318	
24	CG1532	1		2369	8089	1028	2801
25	alph	1		2512	8486	1104	2672
26	CG3735	1		13325		3221	
27	MCTS1	1		3274	10428	1319	3385
28	Cmpk	1		3739	8010	1562	2705
29	lft	1		3297	4058	856	2769
30	Pdp1	1		1640		340	
31	Pdp1	2		2909		379	
32	Pdp1	3		2628	11474	1616	3062
33	CG5440	1		4481	5185	1731	2507
34	CG13284	1		3034	8873	1100	3067
35	APC7	1		2547	4545	816	1972
36	lncRNA:yar	1		4336		2130	
37	lncRNA:yar	2		8.42e5	8.73e5	4.31e5	4.01e5
38	BaraC	1		14579		9430	
39	levy	1		3098	8353	957	3255
40	mRNA-cap	1	Wg reporter activity raised	25058		8682	
41	CG14650	1		12002	9.29e5	5464	5.07e5
42	CG8891	1		4178	7340	1092	2213
43	CG34450	1		3668	7481	1172	2992
44	H2.0	1		4612	9014	1953	4148
45	H2.0	2		6.06e5	6.78e5	2.80e5	2.53e5
46	IscU	1		11244		3875	
47	VhaSFD	1		7559		1986	
48	Snrk	1		13704		1968	
49	CG18268 + CG3014	1		14025		3974	

8 neighbouring entries from above, for reference:
no.	gene knocked down	reagent	reporter change call, replicate 1	firefly reporter light, replicate 1	firefly reporter light, replicate 2	Renilla control light, replicate 1	Renilla control light, replicate 2
28	Cmpk	1		3739	8010	1562	2705
29	lft	1		3297	4058	856	2769
30	Pdp1	1		1640		340	
31	Pdp1	2		2909		379	
32	Pdp1	3		2628	11474	1616	3062
33	CG5440	1		4481	5185	1731	2507
34	CG13284	1		3034	8873	1100	3067
35	APC7	1		2547	4545	816	1972
